Assay results: article PMC10174618, “Monoterpenoid aryl hydrocarbon receptor allosteric antagonists protect against ultraviolet skin damage in female mice” (Nature Communications, 2023)
Results are given in words; binding and its absence hold for the method and conditions named. In cells and extracts the contact can be indirect. Some binding calls cover weakened binding; strength is not graded here.

The chains behind the UniProt entries cited, without tags or fusion partners. Where a name states a change or a piece, a line headed by the entry shows the natural chain unless it says otherwise. Residues count along the entry.
UniProt P35869: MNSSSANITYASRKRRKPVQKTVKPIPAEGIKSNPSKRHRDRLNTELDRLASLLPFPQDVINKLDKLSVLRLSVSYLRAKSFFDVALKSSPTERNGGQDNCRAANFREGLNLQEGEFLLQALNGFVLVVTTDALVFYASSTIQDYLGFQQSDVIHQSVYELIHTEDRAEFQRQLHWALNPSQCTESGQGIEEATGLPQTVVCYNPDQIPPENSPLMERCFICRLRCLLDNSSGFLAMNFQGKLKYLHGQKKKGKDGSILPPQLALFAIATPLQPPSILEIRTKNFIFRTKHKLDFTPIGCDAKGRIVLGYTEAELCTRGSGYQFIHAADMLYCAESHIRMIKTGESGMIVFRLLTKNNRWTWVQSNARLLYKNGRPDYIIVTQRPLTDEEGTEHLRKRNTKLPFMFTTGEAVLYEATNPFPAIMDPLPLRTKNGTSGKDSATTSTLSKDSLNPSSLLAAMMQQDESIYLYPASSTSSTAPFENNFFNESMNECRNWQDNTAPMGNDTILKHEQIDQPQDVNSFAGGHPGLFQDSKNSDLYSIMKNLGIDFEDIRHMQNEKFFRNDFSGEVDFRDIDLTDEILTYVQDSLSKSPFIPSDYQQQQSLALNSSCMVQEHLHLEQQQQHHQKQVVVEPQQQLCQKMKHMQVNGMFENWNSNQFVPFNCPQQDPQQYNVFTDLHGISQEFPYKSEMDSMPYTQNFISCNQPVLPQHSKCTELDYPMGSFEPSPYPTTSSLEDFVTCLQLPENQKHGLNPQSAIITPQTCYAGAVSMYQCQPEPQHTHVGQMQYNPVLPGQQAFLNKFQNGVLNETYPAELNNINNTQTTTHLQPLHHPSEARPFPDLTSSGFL
aryl hydrocarbon receptor (AhR) (human (endogenous in LS180)): residues 11-848 of P35869
His-AhR(23-273): residues 23-273 of P35869
UniProt P27540: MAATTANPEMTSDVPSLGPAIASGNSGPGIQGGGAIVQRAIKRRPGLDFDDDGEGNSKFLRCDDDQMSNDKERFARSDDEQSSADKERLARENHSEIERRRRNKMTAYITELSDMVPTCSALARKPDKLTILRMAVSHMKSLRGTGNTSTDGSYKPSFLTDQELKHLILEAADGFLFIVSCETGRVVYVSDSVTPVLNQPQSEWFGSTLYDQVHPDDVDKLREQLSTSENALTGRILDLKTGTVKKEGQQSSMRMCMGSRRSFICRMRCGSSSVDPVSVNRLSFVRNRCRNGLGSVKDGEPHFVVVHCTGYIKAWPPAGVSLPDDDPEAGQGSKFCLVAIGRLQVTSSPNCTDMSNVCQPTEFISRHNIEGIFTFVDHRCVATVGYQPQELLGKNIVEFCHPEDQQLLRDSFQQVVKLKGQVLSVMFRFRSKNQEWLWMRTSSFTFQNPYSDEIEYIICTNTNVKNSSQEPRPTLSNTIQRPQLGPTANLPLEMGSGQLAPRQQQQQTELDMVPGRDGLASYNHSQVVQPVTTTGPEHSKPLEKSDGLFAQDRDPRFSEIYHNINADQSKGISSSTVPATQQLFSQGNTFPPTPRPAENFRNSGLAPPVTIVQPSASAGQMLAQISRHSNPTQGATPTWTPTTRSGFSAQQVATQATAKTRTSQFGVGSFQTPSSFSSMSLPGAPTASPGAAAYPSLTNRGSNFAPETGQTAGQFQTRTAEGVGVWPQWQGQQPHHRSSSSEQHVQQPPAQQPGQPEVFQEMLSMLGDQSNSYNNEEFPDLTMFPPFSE

Key:
[1] = molecular target: aryl hydrocarbon receptor (AhR) (human (endogenous in LS180)) (UniProt P35869); experiment: co-IP; anti-AhR antibody covalently coupled to resin (Pierce Co-Immunoprecipitation Kit), incubated with lysate overnight at 4 °C; lysates of LS180 cells incubated 90 min at 37 °C with TCDD (20 nM), BaP (7 μM) or FICZ (8 nM), with or without carvones (1000 μM) or monoterpenoid analogs; blot for …
[2] = molecular target: His-AhR(23-273) (human) (UniProt P35869); experiment: pull-down; co-purification: His-AhR(23-273) and FLAG-Arnt(85-345) coexpressed in E. coli, lysate passed over HisPur Cobalt columns; final buffer 20 mM HEPES pH 7.0, 300 mM NaCl, 5% glycerol; both proteins verified by Western blot (anti-His-tag, anti-FLAG-tag)

Question: For “AhR nuclear translocator (ARNT) (from UniProt P27540 1-789)”, which binding [1] is on record?
Answer: binds

Question: Which binding [2] does the source give for “FLAG-Arnt(85-345) (from UniProt P53762 85-345) (domain or fragment)” here?
Answer: binds
